# Results taken from patent US12403136B2, “Cannabinoid derivatives as pharmaceutically active compounds and methods of preparation thereof” (JAZZ PHARMACEUTICALS RESEARCH UK LIMITED, priority 2019, dated 2025).
# System: mouse model of generalised seizure (tonic hind limb extensor convulsions)
# Test: Maximal electroshock seizure threshold (MEST) test in the mouse
# Settings: diazepam 2.5 mg/kg i.p., test 30 min post dose, vehicle CC50 21.0 mA
# Protocol: The efficacy of exemplary cannabinoid derivatives according to Formula I and Formula II were tested in a mouse model of generalised seizure, the maximal electroshock seizure threshold (MEST) test.
# The maximal electroshock seizure threshold (MEST) test is widely utilized preclinically to evaluate pro- or anti-convulsant properties of test compounds (Loscher et al., 1991).
# In the MEST test the ability of a drug to alter the seizure threshold current required to induce hind limb tonic extensor convulsions is measured according to an “up and down” method of shock titration (Kimball et al., 1957). An increase in seizure threshold is indicative of anti-convulsant effect.
# Conversely, a reduction in seizure threshold is indicative of a pro-convulsant effect as observed with known convulsant agents such as picrotoxin.
# The ability of a test compound to alter the stimulus intensity, expressed as current (mA), required to induce the presence of tonic hind limb extensor convulsions, is assessed in the MEST.
# Naïve mice were acclimatised to the procedure room in their home cages for up to 7 days, with food and water available ad libitum. […]
# Test compound effects were also calculated as percentage change in CC50 from the vehicle control group.
# Significant difference between drug-treated animals and controls were assessed according to Litchfield and Wilcoxon (1949).
structure (smiles),measurement,setting,value
"CN1C(=O)CN=C(c2ccccc2)c2cc(Cl)ccc21 [Diazepam, diazepam, reference compound]",CC50 +/− SEM,,35.0 +/− 1.1 mA
same,CC50 +/− SEM,listed as diazepam,35 mA
